Assay results taken from PubChem BioAssay (NCATS).
The inconclusive results got no clear call from the source; some entries with a clear call stand among them for comparison. Potencies beside an inconclusive call are fits to weak or partial responses and may not hold up. The source made the active and inactive calls. Calls follow the shape of the dose curve; as a rule, active = well fitted cell-killing curve with a large enough effect; inconclusive = small, poorly fitted or top-dose-only effect, or effect the other way; inactive = no such curve, though single readings can be large or run the other way.

assay: Quantitative High-Throughput drug screen in 47 multiple myeloma cell lines against the NCATS MIPE library collection: KMS20_JCRB cell viability assay (AID 1918973); conditions: CellTiter-Glo ATP, 48 h; series mostly up to 45.8 µM; also: nearly all actives have a fitted effect of over 45% in size
Procedure, shortened: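 We plated 500 myeloma cells per well, pinned in MIPE 4.0 compounds, and incubated for 48 hours at 37C. ATP was then quantified with CellTiter-Glo, with DMSO and media-only wells defining 100% and 0%.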
Potency is read from the fitted curve at half-maximal effect.

Row | SMILES | Potency
1 | CC(C)C[C@H](NC(=O)c1cc2ccccc2s1)C(=O)N1CCN(C(=O)[C@H](CO)NS(=O)(=O)c2ccc(Cl)cc2Cl)CC1 | inconclusive: 23.5 µM [cytotoxic, partial curve, poor fit]
2 | Cc1oc(=O)oc1CN1CCN(c2cc3c(cc2F)c(=O)c(C(=O)O)c2n3C(C)S2)CC1 (stereo not drawn) | inconclusive: 1.87 µM [rising, partial curve, poor fit]
3 | NCc1c[nH]c(=S)n1[C@H]1CCc2c(F)cc(F)cc2C1 | inconclusive: 13.2 µM [cytotoxic, partial curve, poor fit]
4 | COc1ccc2c(c1)CC[C@@H](CN(C)CC(=O)O)[C@H]2c1ccccc1 | inconclusive: 5.9 µM [cytotoxic, full curve]
5 | COc1cc(CNC(=O)CCCCC=CC(C)C)ccc1O | inconclusive: 0.0017 µM [cytotoxic, full curve, poor fit]
6 | Nc1cccc(S(=O)(=O)N2CCCN(S(=O)(=O)c3ccc4c(c3)OCCO4)CC2)c1 | inconclusive: 26.4 µM [cytotoxic, single point]
7 | CCn1c(-c2nonc2N)nc2c(C#CC(C)(C)O)ncc(OC[C@H]3CCCNC3)c21 | inconclusive: 20.9 µM [cytotoxic, partial curve]
8 | COc1cc2c(c(OC)c1OC)-c1ccc(OC)c(=O)cc1[C@@H](NC(C)=O)CC2 | inconclusive: 0.0053 µM [cytotoxic, full curve]
9 | Oc1ccc([C@@H]2Oc3ccc(O)cc3[C@@H]3CCC[C@@H]32)cc1 | inconclusive: 14.8 µM [cytotoxic, partial curve]
10 | N#CC(=C(N)Sc1ccc(N)cc1)c1ccccc1C(F)(F)F | active: 0.469 µM
11 | CCC(=O)N1CCN(c2ccc(-n3c(=O)ccc4cnc5ccc(-c6cnc7ccccc7c6)cc5c43)cc2C(F)(F)F)CC1 | inconclusive: 0.059 µM [cytotoxic, full curve, poor fit]
12 | CCn1c(=O)c2c(nc(C=Cc3ccc(OC)c(OC)c3)n2C)n(CC)c1=O | inconclusive: 37.2 µM [cytotoxic, single point]
13 | CCNC(=O)Nc1ccc(Oc2ncnc(N)c2C=NOC)cc1Cl | inconclusive: 5.26 µM [cytotoxic, partial curve, poor fit]
14 | CC(C)(O)CCc1ccc(OCc2cc(-c3cccc(OC(F)F)c3)c3ncccc3c2)cc1 | inconclusive: 23.5 µM [cytotoxic, partial curve, poor fit]
15 | N#CC(c1ccc(Cl)cc1)c1c(Cl)cc(-n2ncc(=O)[nH]c2=O)cc1Cl (stereo not drawn) | active: 3.72 µM
16 | Cc1ccc2c(=O)c3cccc(CC(=O)O)c3oc2c1C | active: 33.2 µM
17 | CN(C)CCN(Cc1ccc(Cl)cc1)c1ccccn1 | inconclusive: 6.62 µM [cytotoxic, partial curve, poor fit]
18 | COc1ccc2[nH]cc(CCNC(C)=O)c2c1 | inactive
19 | CN1c2ccccc2C(=O)N2CCc3c([nH]c4ccccc34)C21 (stereo not drawn) | inconclusive: 20.9 µM [cytotoxic, partial curve, poor fit]

A different layout for part of the listing above.
Row,SMILES,Potency
1,CC(C)C[C@H](NC(=O)c1cc2ccccc2s1)C(=O)N1CCN(C(=O)[C@H](CO)NS(=O)(=O)c2ccc(Cl)cc2Cl)CC1,"inconclusive: 23.5 µM [cytotoxic, partial curve, poor fit]"
2,Cc1oc(=O)oc1CN1CCN(c2cc3c(cc2F)c(=O)c(C(=O)O)c2n3C(C)S2)CC1 (stereo not drawn),"inconclusive: 1.87 µM [rising, partial curve, poor fit]"
3,NCc1c[nH]c(=S)n1[C@H]1CCc2c(F)cc(F)cc2C1,"inconclusive: 13.2 µM [cytotoxic, partial curve, poor fit]"
4,COc1ccc2c(c1)CC[C@@H](CN(C)CC(=O)O)[C@H]2c1ccccc1,"inconclusive: 5.9 µM [cytotoxic, full curve]"
9,Oc1ccc([C@@H]2Oc3ccc(O)cc3[C@@H]3CCC[C@@H]32)cc1,"inconclusive: 14.8 µM [cytotoxic, partial curve]"
10,N#CC(=C(N)Sc1ccc(N)cc1)c1ccccc1C(F)(F)F,active: 0.469 µM
12,CCn1c(=O)c2c(nc(C=Cc3ccc(OC)c(OC)c3)n2C)n(CC)c1=O,"inconclusive: 37.2 µM [cytotoxic, single point]"
13,CCNC(=O)Nc1ccc(Oc2ncnc(N)c2C=NOC)cc1Cl,"inconclusive: 5.26 µM [cytotoxic, partial curve, poor fit]"
15,N#CC(c1ccc(Cl)cc1)c1c(Cl)cc(-n2ncc(=O)[nH]c2=O)cc1Cl (stereo not drawn),active: 3.72 µM
17,CN(C)CCN(Cc1ccc(Cl)cc1)c1ccccn1,"inconclusive: 6.62 µM [cytotoxic, partial curve, poor fit]"
19,CN1c2ccccc2C(=O)N2CCc3c([nH]c4ccccc34)C21 (stereo not drawn),"inconclusive: 20.9 µM [cytotoxic, partial curve, poor fit]"

Continued.

Row | SMILES | Potency
20 | CC(=O)N1CCN(c2ccc(OC[C@H]3CO[C@](Cn4ccnc4)(c4ccc(Cl)cc4Cl)O3)cc2)CC1 | active: 7.43 µM
21 | CCN(C)C(=O)Oc1cccc([C@H](C)N(C)C)c1 | inconclusive: 0.0042 µM [rising, full curve, poor fit]
22 | CCN(CCO)CCCOc1ccc2c(Nc3cc(CC(=O)Nc4cccc(F)c4)[nH]n3)ncnc2c1 | inactive
23 | N#CC(=C(O)c1ccc(Cl)cc1Cl)c1nc2cc(Cl)ccc2c(=O)[nH]1 | inactive
24 | CCCCOCCOc1nc(-c2ccc(C(=O)O)c(F)c2)sc1C | inconclusive: 9.35 µM [cytotoxic, partial curve, poor fit]
25 | CC(C)(Oc1ccc(C2CC2(Cl)Cl)cc1)C(=O)O (stereo not drawn) | inconclusive: 0.152 µM [rising, full curve, poor fit]
26 | CNC(=O)c1cc(Oc2ccc(NC(=O)Nc3ccc(Cl)c(C(F)(F)F)c3)cc2)ccn1 | active: 16.6 µM
27 | CC(c1cc2ccccc2s1)N(O)C(N)=O (stereo not drawn) | inactive
28 | CN1CCC[C@H]1CCO[C@](C)(c1ccccc1)c1ccc(Cl)cc1 | inconclusive: 29.6 µM [cytotoxic, partial curve, poor fit]
29 | C=CCn1c(=O)c2cnc(Nc3ccc(N4CCN(C)CC4)cc3)nc2n1-c1cccc(C(C)(C)O)n1 | active: 8.33 µM
30 | CC(NCCc1ccc(O)cc1)C(O)c1ccc(O)cc1 (stereo not drawn) | inconclusive: 0.0296 µM [cytotoxic, full curve, poor fit]
31 | Cn1c(=O)c2c(ncn2CC(O)CO)n(C)c1=O (stereo not drawn) | inactive
32 | N[C@@H](Cc1ccc(O)c(O)c1)C(=O)O | inactive
33 | CC(C)(C)OC(=O)Nc1ccc(-c2cc(C(=O)NCCCCCCC(=O)NO)no2)cc1 | active: 2.64 µM
34 | CON=C(C(=O)N[C@@H]1C(=O)N2C(C(=O)O)=C(Cn3ccc(=N)n3CCO)CS[C@H]12)c1csc(N)n1 | inconclusive: 2.35 µM [rising, full curve, poor fit]
35 | O=C(O)CCc1ccc(NCc2cccc(Oc3ccccc3)c2)cc1 | inconclusive: 0.0019 µM [rising, full curve, poor fit]
36 | Cn1cc(-c2ccncc2)c(-c2ccc(OCc3ccc4ccccc4n3)cc2)n1 | inconclusive: 1.48 µM [cytotoxic, full curve, poor fit]
37 | COc1cccc(Nc2c(C(N)=O)cnc3c(C)cc(S(=O)(=O)c4cccc(C(=O)N(C)C)c4)cc23)c1 | inconclusive: 0.0724 µM [rising, partial curve, poor fit]
38 | COc1ccc2c(c1OC)C(=O)OC2[C@H]1c2c(cc3c(c2OC)OCO3)CCN1C (stereo partly drawn) | inconclusive: 1.32 µM [cytotoxic, partial curve, poor fit]
